Test in all cases: affinity purification with mass spectrometry
The target in assay [1] is ARHGEF11 (interactome screen) (human) (UniProt O15085).
The target in assay [2] is ARHGEF12 (interactome screen) (human) (UniProt Q9NZN5).
Assay [3] concerns the target T1, SYDE1 (not stated (library cDNAs: human, mouse, rat or chimpanzee; Table S1)) (UniProt Q6ZW31).
T1 sequence: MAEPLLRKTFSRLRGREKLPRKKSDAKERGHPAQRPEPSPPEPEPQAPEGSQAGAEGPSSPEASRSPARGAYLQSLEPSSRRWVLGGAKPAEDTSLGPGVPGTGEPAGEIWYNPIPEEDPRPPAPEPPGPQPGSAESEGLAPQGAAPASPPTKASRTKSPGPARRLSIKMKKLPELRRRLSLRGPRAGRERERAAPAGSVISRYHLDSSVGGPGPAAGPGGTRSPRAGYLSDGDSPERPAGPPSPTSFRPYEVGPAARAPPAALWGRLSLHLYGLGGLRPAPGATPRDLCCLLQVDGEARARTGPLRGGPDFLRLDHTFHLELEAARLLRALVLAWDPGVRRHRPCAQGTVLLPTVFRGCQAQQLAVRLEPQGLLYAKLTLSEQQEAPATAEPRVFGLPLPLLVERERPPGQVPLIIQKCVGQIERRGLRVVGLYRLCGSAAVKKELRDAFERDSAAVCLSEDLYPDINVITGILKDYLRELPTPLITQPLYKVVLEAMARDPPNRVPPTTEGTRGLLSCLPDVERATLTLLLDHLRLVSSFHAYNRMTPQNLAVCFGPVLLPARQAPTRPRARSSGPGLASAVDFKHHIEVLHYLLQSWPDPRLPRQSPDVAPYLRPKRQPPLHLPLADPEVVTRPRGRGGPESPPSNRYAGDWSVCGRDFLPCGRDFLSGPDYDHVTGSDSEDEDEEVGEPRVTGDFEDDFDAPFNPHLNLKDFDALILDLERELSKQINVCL

By UniProt entry, the sequences of proteins in these tests, tags left out.
UniProt O15085: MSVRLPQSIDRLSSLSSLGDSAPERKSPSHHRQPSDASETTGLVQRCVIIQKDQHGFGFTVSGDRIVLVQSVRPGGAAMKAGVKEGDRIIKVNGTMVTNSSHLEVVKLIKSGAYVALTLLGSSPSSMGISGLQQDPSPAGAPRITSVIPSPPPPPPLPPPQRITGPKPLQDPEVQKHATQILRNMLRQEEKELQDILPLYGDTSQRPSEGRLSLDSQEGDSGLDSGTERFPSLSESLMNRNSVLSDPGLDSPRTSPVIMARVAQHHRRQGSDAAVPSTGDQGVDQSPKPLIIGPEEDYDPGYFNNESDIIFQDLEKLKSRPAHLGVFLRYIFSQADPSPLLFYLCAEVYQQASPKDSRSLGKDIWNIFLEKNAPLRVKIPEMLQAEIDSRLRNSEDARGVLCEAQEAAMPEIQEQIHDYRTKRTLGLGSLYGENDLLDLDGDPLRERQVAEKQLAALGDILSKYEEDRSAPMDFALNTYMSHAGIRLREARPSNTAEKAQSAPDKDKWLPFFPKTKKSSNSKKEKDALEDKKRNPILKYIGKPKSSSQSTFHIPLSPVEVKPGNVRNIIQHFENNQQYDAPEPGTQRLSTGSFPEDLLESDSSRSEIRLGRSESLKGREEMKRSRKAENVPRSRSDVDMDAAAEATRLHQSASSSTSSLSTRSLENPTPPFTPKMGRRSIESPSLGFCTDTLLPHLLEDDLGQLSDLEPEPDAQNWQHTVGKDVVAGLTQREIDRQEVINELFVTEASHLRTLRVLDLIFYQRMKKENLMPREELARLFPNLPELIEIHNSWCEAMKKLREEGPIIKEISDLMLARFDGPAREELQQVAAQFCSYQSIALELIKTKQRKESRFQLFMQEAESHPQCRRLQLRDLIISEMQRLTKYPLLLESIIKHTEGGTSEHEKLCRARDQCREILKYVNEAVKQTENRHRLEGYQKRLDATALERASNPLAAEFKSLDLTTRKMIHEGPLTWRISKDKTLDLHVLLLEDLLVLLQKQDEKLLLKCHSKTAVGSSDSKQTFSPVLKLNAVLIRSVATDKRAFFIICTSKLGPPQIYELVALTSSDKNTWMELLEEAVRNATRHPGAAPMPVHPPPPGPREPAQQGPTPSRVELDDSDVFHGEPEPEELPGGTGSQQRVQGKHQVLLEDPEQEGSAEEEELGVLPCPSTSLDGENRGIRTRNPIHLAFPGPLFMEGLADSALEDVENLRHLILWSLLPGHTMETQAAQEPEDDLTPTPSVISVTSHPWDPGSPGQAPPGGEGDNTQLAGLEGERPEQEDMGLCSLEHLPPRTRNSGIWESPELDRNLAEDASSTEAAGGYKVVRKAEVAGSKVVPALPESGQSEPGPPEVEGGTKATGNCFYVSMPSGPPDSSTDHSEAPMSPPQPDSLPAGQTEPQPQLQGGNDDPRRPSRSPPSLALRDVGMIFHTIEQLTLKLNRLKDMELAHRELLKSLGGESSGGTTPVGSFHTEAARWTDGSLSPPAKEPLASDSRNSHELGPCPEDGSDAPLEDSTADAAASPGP
UniProt Q9NZN5: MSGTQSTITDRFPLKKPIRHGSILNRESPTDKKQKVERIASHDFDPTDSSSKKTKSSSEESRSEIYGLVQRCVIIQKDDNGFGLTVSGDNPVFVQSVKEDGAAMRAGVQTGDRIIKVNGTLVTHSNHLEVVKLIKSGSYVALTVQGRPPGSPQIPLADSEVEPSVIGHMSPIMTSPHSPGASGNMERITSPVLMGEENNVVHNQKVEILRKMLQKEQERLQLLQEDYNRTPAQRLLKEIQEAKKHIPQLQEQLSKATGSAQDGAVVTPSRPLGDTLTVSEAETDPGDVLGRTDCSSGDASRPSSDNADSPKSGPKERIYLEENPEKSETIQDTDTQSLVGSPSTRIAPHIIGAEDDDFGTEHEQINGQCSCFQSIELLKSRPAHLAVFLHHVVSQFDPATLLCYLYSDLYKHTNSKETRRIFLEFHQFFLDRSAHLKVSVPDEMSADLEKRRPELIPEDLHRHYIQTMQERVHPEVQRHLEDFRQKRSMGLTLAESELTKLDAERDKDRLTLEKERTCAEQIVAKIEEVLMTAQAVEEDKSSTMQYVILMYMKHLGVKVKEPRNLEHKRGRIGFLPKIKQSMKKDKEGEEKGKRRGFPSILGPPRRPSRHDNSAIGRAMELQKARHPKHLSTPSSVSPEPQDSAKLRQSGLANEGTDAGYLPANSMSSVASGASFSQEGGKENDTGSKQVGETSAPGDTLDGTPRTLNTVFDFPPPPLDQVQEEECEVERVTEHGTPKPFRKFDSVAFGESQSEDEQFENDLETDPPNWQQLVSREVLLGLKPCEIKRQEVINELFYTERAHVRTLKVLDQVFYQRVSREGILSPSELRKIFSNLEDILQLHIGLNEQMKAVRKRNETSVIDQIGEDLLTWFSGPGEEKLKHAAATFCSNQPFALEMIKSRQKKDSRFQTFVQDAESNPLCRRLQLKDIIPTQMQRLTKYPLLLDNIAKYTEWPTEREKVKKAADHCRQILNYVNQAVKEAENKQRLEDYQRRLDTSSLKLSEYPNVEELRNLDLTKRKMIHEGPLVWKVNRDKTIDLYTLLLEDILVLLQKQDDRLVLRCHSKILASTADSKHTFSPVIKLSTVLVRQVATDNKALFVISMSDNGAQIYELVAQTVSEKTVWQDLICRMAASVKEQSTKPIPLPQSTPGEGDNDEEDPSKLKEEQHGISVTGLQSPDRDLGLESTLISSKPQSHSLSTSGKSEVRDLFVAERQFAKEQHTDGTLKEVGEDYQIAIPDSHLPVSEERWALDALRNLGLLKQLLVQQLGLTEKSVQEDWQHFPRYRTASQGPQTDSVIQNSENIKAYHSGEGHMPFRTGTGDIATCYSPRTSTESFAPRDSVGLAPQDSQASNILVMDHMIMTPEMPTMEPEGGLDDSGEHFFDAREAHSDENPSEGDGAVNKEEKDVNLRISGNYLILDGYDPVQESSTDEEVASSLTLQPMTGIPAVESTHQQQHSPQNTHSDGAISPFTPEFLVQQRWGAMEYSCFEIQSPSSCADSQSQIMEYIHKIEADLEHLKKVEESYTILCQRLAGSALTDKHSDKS
UniProt Q96PX9: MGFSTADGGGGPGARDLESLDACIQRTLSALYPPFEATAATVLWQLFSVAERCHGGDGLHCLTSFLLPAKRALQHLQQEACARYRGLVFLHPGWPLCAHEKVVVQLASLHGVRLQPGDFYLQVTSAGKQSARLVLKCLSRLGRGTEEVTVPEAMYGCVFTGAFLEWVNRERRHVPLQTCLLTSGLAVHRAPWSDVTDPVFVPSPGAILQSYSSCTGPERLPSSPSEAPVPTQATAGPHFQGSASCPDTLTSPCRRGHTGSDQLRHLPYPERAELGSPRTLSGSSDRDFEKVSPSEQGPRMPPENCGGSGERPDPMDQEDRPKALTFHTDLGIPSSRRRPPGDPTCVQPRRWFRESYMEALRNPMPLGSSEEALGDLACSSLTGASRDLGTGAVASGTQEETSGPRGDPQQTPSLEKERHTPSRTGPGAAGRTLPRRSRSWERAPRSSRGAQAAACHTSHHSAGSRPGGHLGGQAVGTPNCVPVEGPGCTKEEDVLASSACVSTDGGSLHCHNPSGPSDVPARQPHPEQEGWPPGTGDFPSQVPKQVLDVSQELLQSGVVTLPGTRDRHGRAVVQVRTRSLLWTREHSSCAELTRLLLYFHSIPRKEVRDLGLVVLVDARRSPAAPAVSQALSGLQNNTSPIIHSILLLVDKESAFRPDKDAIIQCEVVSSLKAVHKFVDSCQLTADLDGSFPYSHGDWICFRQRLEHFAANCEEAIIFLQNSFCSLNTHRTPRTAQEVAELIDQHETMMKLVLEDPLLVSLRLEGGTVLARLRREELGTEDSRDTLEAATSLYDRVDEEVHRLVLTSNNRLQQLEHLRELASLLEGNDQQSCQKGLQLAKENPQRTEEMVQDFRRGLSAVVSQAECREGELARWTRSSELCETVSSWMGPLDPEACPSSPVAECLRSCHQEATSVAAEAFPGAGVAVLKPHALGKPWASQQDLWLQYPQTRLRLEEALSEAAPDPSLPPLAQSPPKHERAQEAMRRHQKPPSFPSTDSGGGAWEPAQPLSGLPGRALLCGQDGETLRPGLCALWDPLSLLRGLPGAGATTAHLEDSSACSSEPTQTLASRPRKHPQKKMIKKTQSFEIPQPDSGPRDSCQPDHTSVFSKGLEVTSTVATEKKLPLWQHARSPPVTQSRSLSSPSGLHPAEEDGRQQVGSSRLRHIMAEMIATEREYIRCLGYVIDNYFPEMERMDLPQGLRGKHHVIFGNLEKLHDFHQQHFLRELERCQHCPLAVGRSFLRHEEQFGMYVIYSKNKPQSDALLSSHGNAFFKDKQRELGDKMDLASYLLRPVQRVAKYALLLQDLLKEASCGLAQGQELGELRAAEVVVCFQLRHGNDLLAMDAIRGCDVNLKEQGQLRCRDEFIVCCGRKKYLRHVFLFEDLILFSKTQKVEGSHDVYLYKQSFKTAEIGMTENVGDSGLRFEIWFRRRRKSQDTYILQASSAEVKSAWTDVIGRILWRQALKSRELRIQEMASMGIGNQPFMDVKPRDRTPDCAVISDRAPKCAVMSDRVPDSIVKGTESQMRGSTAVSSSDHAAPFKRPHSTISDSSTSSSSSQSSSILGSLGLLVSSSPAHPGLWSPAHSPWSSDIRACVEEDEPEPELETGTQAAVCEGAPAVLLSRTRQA

These are yes or no findings as the source states them, for the method shown. In cells and extracts the contact can be indirect. These calls come from enrichment with a bait or labelling near it, and not all partners need be listed.

In the case of “PLEKHG4B (interactome screen) (from UniProt Q96PX9 1-1627)”, the binding entry in assay [1] and in assay [2] was “binds” in each case.

B1: ARHGAP28 (protein, UniProt Q9P2N2 1-729)
chain: MEVEDSGGVVLTAYHSYARAQPPNAESRCAPRAAASHPLSRKSIPRCRRINRMLSNESLHPPAFSRSNSEASVDSASMEDFWREIESIKDSSMGGQEEPPPAEVTPVDEGELEAEWLQDVGLSTLISGDEEEDGKALLSTLTRTQAAAVQKRYHTYTQTMRKKDKQSIRDVRDIFGVSESPPRDTCGNHTNQLDGTKEERELPRVIKTSGSMPDDASLNSTTLSDASQDKEGSFAVPRSDSVAILETIPVLPVHSNGSPEPGQPVQNAISDDDFLEKNIPPEAEELSFEVSYSEMVTEALKRNKLKKSEIKKEDYVLTKFNVQKTRFGLTEAGDLSAEDMKKIRHLSLIELTAFFDAFGIQLKRNKTEKVKGRDNGIFGVPLTVLLDGDRKKDPGVKVPLVLQKFFEKVEESGLESEGIFRLSGCTAKVKQYREELDAKFNADKFKWDKMCHREAAVMLKAFFRELPTSLFPVEYIPAFISLMERGPHVKVQFQALHLMVMALPDANRDAAQALMTFFNKVIANESKNRMSLWNISTVMAPNLFFSRSKHSDYEELLLANTAAHIIRLMLKYQKILWKVPSFLITQVRRMNEATMLLKKQLPSVRKLLRRKTLERETASPKTSKVLQKSPSARRMSDVPEGVIRVHAPLLSKVSMAIQLNNQTKAKDILAKFQYENSHGSSECIKIQNQRLYEIGGNIGEHCLDPDAYILDVYRINPQAEWVIKPQQSS
Turning to B1, the binding entry in assay [3] was “binds”.

For the origin of these results see article doi:10.1101/354316.
